These are yes or no findings as the source states them, for the method shown. Binding seen in cells or lysates may run through a third protein. Some entries that bind do so weakly or less than the wild type. For part of these data: Sequences can lack the tags named with a protein.

Protein sequences, listed by entry. Tags and fused reporters are not part of them.
UniProt Q16666: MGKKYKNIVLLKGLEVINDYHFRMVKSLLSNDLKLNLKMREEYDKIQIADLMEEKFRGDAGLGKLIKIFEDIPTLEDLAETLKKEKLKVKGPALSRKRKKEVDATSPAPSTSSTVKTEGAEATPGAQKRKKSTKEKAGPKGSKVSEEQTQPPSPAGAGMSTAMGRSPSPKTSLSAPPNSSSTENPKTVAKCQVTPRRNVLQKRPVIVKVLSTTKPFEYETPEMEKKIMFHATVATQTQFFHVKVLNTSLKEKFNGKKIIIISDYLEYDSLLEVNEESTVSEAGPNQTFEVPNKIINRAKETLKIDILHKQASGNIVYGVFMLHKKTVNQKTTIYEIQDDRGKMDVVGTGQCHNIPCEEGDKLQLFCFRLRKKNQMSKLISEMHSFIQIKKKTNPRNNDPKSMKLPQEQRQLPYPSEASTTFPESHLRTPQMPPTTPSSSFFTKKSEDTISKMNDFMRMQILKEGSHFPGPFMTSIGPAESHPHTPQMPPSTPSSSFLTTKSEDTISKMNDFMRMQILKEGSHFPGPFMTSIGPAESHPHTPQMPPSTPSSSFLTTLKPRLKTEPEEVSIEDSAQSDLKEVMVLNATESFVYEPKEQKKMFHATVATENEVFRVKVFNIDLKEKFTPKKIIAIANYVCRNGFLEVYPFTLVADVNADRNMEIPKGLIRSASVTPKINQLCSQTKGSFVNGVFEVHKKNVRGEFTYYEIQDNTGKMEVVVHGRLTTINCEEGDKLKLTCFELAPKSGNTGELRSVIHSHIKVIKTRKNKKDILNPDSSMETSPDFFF

Test [1] has as its target T1, HA-tagged human ChREBPα (human) (UniProt Q9NP71).
T1 sequence: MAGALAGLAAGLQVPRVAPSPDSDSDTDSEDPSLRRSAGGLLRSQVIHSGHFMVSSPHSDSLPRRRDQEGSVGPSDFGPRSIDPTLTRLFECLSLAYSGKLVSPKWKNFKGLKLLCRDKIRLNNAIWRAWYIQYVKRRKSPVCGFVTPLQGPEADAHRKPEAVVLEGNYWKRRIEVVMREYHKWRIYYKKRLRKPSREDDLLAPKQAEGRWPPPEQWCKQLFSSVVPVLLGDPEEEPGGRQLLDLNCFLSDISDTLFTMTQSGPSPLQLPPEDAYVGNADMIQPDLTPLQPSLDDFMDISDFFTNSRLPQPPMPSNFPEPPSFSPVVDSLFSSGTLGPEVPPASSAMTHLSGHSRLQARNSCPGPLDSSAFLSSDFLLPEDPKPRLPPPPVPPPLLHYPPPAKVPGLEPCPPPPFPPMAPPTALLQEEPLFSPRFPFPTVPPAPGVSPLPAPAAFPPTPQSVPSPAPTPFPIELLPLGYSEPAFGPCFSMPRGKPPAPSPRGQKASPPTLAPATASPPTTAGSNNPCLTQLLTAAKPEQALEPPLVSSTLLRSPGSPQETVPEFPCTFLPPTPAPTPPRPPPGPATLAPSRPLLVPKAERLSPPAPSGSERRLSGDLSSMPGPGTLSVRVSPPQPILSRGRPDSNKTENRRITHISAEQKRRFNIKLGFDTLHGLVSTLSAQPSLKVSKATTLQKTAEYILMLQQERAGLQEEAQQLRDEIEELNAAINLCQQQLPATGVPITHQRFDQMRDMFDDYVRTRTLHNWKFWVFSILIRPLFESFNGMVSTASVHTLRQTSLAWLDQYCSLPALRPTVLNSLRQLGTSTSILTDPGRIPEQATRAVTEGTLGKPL
Description: co-IP; […] (50 mM Tris pH 7.4, 150 mM NaCl, 1 mM EDTA, 1% Triton); […].

Test [2] addresses T2, carbohydrate-response element-binding protein (ChREBP) (human (endogenous in HFFs)) (UniProt Q9NP71).
T2 sequence: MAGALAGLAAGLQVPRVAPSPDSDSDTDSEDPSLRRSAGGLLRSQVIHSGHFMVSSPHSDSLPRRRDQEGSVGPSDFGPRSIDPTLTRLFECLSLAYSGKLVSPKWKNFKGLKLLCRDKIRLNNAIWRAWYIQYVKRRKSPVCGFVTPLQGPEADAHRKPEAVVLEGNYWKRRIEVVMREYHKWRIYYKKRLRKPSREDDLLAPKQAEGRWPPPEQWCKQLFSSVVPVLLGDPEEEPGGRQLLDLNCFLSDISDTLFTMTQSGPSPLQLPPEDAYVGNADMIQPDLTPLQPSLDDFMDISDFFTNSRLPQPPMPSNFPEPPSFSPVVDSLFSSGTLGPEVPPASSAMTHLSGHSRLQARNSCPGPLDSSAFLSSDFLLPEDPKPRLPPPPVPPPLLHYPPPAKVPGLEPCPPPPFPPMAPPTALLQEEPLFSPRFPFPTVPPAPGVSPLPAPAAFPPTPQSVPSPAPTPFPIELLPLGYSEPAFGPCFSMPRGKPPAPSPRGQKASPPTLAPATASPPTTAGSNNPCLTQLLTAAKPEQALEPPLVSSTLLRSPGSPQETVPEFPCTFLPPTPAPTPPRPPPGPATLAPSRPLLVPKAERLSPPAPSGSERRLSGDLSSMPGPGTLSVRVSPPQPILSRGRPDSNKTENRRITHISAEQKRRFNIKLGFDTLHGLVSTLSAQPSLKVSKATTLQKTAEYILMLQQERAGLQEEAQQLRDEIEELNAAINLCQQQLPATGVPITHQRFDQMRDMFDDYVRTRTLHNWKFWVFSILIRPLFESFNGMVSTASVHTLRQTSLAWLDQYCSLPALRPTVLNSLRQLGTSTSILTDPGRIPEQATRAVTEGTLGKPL
Description: proximity ligation; in situ PLA (DuoLink) with anti-ChREBP and anti-IFI16 antibodies on fixed, permeabilised HFFs infected with HCMV (MOI 1) for 24 h; mock-infected cells as negative control.

The target in test [3] is gamma interferon (IFN-γ)-inducible protein 16 (IFI16) (human (endogenous in HFFs)) (UniProt Q16666). The experiment in a line: co-IP; […] (50 mM Tris pH 7.4, 150 mM NaCl, 1 mM EDTA, 1% Triton); […].

Turning to “gamma interferon (IFN-γ)-inducible protein 16 (IFI16) (from UniProt Q16666 1-785)”, the binding entry in test [1] and in test [2] was “binds” each time.

B1: HA-tagged human ChREBPα (protein, UniProt Q9NP71 1-852)
chain: MAGALAGLAAGLQVPRVAPSPDSDSDTDSEDPSLRRSAGGLLRSQVIHSGHFMVSSPHSDSLPRRRDQEGSVGPSDFGPRSIDPTLTRLFECLSLAYSGKLVSPKWKNFKGLKLLCRDKIRLNNAIWRAWYIQYVKRRKSPVCGFVTPLQGPEADAHRKPEAVVLEGNYWKRRIEVVMREYHKWRIYYKKRLRKPSREDDLLAPKQAEGRWPPPEQWCKQLFSSVVPVLLGDPEEEPGGRQLLDLNCFLSDISDTLFTMTQSGPSPLQLPPEDAYVGNADMIQPDLTPLQPSLDDFMDISDFFTNSRLPQPPMPSNFPEPPSFSPVVDSLFSSGTLGPEVPPASSAMTHLSGHSRLQARNSCPGPLDSSAFLSSDFLLPEDPKPRLPPPPVPPPLLHYPPPAKVPGLEPCPPPPFPPMAPPTALLQEEPLFSPRFPFPTVPPAPGVSPLPAPAAFPPTPQSVPSPAPTPFPIELLPLGYSEPAFGPCFSMPRGKPPAPSPRGQKASPPTLAPATASPPTTAGSNNPCLTQLLTAAKPEQALEPPLVSSTLLRSPGSPQETVPEFPCTFLPPTPAPTPPRPPPGPATLAPSRPLLVPKAERLSPPAPSGSERRLSGDLSSMPGPGTLSVRVSPPQPILSRGRPDSNKTENRRITHISAEQKRRFNIKLGFDTLHGLVSTLSAQPSLKVSKATTLQKTAEYILMLQQERAGLQEEAQQLRDEIEELNAAINLCQQQLPATGVPITHQRFDQMRDMFDDYVRTRTLHNWKFWVFSILIRPLFESFNGMVSTASVHTLRQTSLAWLDQYCSLPALRPTVLNSLRQLGTSTSILTDPGRIPEQATRAVTEGTLGKPL
For the molecule B1, the binding entry in test [3] was “binds”.
